Source: paper PMC10917063
No constants are given. Whether binding was seen depends on the method and setting. In cells and extracts the contact can be indirect. These calls come from enrichment with a bait or labelling near it, and not all partners need be listed. No binding means not detected with the bait.

B1: Origin recognition complex subunit 6 (protein, UniProt Q9Y1B2 1-257)
chain: MTTLIEQLITKMGLREEPNVLEKTTELVRLLELRSTNVPLQINEYGKIVLCADLASCMIGIAFDKEQALKLSGLRKSQYLNNKRMFEKLLDLNKLASVNDICVQLGLNEVARKAEELMTLFKGVAATEDMGTDTSHPQYATMAVFQACRLLKKKVSKSKLMPFSNLRPSQFQLLEQQWERMIAKHHKESKVPSSTDMEGKLKENQNENIKGHEAKKAHKPPPEDYEIWKARMLAKAQAKLKELEASQSHMDSQLLEA
B2: Rumi (protein, UniProt Q8T045 21-411)
chain: EDDGLCSADQKSCAQSEPDQINEDEFSFKIRRQIEKANADYKPCSSDPQDSDCSCHANVLKRDLAPYKSTGVTRQMIESSARYGTKYKIYGHRLYRDANCMFPARCEGIEHFLLPLVATLPDMDLIINTRDYPQLNAAWGNAAGGPVFSFSKTKEYRDIMYPAWTFWAGGPATKLHPRGIGRWDQMREKLEKRAAAIPWSQKRSLGFFRGSRTSDERDSLILLSRRNPELVEAQYTKNQGWKSPKDTLDAPAADEVSFEDHCKYKYLFNFRGVAASFRLKHLFLCKSLVFHVGDEWQEFFYDQLKPWVHYVPLKSYPSQQEYEHILSFFKKNDALAQEIAQRGYDFIWEHLRMKDIKCYWRKLLKRYVKLLQYEVKPEDQLIYIGPKKDEL
B3: Par-6 (protein, UniProt O97111 1-351)
chain: MSKNKINTTSATAASDTNLIEVKSKFDAEFRRWSFKRNEAEQSFDKFASLIEQLHKLTNIQFLILYIDPRDNDLLPINNDDNFGRALKTARPLLRVIVQRKDDLNEYSGFGTMKPRNLIGSILMGHTPVKTKAPSISIPHDFRQVSAIIDVDIVPETHRRVRLLKHGSDKPLGFYIRDGTSVRVTASGLEKQPGIFISRLVPGGLAESTGLLAVNDEVIEVNGIEVAGKTLDQVTDMMVANSSNLIITVKPANQRTLTSTHRGSFSRNSQLSSGSHHTNNTNTSDEIEHDDQDDIVDLTGVTLDESPTSTSAGNHNHQPPLSSSPSSHHQQAASNASTIMASDVKDGVLHL
B4: EF1γ, endogenous in embryos (protein, UniProt Q9NJH0 1-431)
chain: MVKGTLYTYPENFRAYKALIAAQYSGAQVKVADNFKFGETNKSAEFLKKFPGGKVPAFETAEGQYLSESNAIAYLLANEQLRGGKCPFVQAQVQQWISFADNEIVPASCAWVFPLLGILPQQKNSTAKQEAEAVLQQLNQKLQDATFLAGERITLADIVVFSSLLHLYEYVLEPSVRSAFGNVNRWFVTILNQKQVQAVVKDYKLCEKALVFDPKKYAEFQAKTGAAKPQQQAQQQKQEKKPKEKKEAPKKAAEPAEELDAADEALAAEPKSKDPFDALPKGTFNFDDFKRVYSNEDEAKSIPYFFDKFDAENYSIWFGEYKYNEELSKVFMSCNLITGMFQRLDKMRKAAFASVCLFGEDGNSTISGIWVWRGQDLAFTLSPDWQIDYEVYDWKKLDAKSEETKKLVTQYFSWSGTDKDGRKFNQGKIFK
B5: RpS17 (protein, UniProt P17704 1-131)
chain: MGRVRTKTVKKAAKVIIEKYYTRLTLDFHTNKRICEEVAIIPTKPLRNKIAGYVTHLMGRLRHSQVRGISIKLQEEERERRDNYVPAVSALEQDIIEVDADTKEMLKLLDFHNIRGLQLTQPNTNNFGRRN

How the values were obtained:
[1] = molecular target: BicDR^K555A::GFP (Drosophila (endogenous in embryos)); experiment: affinity purification with mass spectrometry; anti-GFP IP from embryo extracts, duplicates; SDS-PAGE, Coomassie; bands found in the BicDR::GFP fraction and not in BicDR^K555A::GFP excised and analysed by MS, with the corresponding slices of the control lanes
[2] = molecular target: BicDR^K555A::GFP (Drosophila (endogenous in embryos)); experiment: affinity purification with mass spectrometry; anti-GFP IP from embryo extracts, triplicates; proteomic analysis directly on the precipitated fractions; controls BicDR^K555A::GFP and white (untagged)

| Binder | binding [1] | binding [2] |
| --- | --- | --- |
| B1 | no binding |  |
| B2 | no binding |  |
| B3 | no binding |  |
| B4 | no binding |  |
| B5 |  | no binding |
